In PMC10743696:
No constants are given. Whether binding was seen depends on the method and setting. In cells and extracts the contact can be indirect. Some results given as binding are weak or reduced against the parent protein; the word gives no strength.

Sequences of proteins named here, by UniProt entry; tags and fusion partners are left off. Residues count along the entry.
UniProt P13595, residues 20-1115: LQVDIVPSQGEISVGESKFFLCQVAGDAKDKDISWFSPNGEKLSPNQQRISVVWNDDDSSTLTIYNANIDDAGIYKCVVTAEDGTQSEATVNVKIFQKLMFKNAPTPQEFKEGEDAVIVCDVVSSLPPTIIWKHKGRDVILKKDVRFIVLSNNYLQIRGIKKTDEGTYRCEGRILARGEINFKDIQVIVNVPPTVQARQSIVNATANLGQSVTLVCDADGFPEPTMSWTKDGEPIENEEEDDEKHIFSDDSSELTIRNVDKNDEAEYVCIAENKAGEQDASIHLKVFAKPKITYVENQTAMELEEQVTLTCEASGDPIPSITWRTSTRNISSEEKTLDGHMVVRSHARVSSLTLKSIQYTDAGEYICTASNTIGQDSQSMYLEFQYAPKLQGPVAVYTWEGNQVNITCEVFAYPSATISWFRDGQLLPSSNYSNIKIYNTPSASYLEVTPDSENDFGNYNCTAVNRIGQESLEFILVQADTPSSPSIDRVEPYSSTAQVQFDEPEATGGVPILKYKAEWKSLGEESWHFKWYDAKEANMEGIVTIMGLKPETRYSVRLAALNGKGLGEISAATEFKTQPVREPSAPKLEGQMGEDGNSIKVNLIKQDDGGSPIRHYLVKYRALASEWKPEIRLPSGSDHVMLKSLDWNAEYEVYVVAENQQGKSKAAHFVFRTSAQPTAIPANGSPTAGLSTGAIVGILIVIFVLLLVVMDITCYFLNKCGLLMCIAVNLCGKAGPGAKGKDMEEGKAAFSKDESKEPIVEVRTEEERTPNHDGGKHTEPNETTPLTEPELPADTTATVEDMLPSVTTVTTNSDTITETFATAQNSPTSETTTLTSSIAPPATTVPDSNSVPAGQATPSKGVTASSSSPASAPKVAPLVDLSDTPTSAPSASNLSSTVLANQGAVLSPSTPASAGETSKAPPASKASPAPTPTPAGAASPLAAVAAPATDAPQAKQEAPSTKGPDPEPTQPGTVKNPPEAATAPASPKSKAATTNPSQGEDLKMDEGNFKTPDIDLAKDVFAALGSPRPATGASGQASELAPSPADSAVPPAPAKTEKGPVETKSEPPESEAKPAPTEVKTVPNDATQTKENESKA

Biological target: PrP^C of differentiated C2C12 cultures (mouse (endogenous in C2C12)) (UniProt P04925)
Experiment: cross-linking

## neural cell adhesion molecule (NCAM) (from UniProt P13595 20-1115)
  binding: binds
